Consider 6 sequences from paper PMC8789055, “Structural and biochemical characterization of human Schlafen 5”.

Residue numbers refer to the chain shown, from its start. A weaker result is weaker than the reference pair of the same experiment. Protein sequences can lack the tags named with them. For some of these results: The exact form of at least one protein or probe is not confirmed.

The target in series [1] is T1, SLFN5 1-336 R326E (Homo sapiens) (UniProt Q08AF3).
T1 sequence (looked up): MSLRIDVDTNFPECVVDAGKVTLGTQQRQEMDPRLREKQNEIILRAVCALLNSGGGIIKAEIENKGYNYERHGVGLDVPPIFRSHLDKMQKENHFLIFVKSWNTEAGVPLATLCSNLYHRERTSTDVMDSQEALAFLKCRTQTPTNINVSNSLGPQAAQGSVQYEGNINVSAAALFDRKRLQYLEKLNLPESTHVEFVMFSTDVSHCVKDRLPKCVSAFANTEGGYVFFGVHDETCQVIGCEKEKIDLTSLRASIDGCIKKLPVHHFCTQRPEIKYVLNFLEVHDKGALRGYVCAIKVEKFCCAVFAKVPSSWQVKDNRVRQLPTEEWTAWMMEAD
Kind of series: fluorescence anisotropy. Conditions: FA: 2x buffer 100 mM HEPES pH 8.0, 100 mM NaCl mixed 1:1 with 100 nM (final) FAM ligand, 30 min on ice, recombinant protein, residues 1-336, protein details: C-terminal His6. A general note: Polarisation of emitted light reports the rotation of a fluorescent probe.

The target in series [2] is T2, SLFN5 1-336 R271E (Homo sapiens) (UniProt Q08AF3).
T2 sequence (looked up): T1 sequence (looked up) with R271E, E326R
As to the kind of experiment: fluorescence anisotropy. Conditions: FA: 2x buffer 100 mM HEPES pH 8.0, 100 mM NaCl mixed 1:1 with 100 nM (final) FAM ligand, 30 min on ice, recombinant protein, residues 1-336, protein details: C-terminal His6.

Series [3] deals with T3, SLFN5 full length (Homo sapiens) (UniProt Q08AF3).
T3 sequence (looked up): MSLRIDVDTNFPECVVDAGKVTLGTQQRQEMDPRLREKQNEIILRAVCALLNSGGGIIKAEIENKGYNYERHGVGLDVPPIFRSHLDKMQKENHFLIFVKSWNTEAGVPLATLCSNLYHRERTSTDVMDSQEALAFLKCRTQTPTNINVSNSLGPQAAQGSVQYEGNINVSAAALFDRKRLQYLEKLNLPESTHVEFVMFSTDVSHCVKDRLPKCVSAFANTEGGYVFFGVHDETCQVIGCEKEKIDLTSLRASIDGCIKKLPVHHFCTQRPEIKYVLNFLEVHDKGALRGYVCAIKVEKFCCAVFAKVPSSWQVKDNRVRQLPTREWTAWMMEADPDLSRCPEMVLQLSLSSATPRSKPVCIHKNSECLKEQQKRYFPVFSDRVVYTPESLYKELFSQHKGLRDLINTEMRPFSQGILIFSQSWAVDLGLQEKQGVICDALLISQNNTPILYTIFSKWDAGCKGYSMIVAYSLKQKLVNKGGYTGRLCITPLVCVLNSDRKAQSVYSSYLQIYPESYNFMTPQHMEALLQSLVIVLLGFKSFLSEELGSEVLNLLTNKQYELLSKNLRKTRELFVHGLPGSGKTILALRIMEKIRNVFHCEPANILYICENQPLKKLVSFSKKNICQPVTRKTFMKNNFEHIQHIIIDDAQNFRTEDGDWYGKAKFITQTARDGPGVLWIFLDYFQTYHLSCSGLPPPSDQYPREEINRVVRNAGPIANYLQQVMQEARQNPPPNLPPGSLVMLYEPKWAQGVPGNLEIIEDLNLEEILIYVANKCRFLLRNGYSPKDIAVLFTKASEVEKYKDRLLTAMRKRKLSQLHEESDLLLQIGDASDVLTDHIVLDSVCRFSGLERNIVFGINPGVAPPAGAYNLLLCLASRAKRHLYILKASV
Kind of series: competition EMSA. Conditions: with 196 bp DNA, 20 nM each, DNA preferred; EMSA: 25 mM HEPES pH 7.0, 60 mM NaCl, 5% glycerol, 2 mM MgCl2, 0.5 mM DTT, 40 nM substrate, 30 min on ice, gel at 4 C; recombinant protein; residues 1-891; protein details: N-terminal double FLAG, HRV 3C site; label: 5'-FAM. A general note: Mobility shift assays separate free from complexed probe on a gel.

In series [4] the target is T4, SLFN5 1-336 (Schlafen core domain) (Homo sapiens) (UniProt Q08AF3).
T4 sequence (looked up): T1 sequence (looked up) with E326R
Kind of series: fluorescence anisotropy. Conditions: FA: 2x buffer 100 mM HEPES pH 8.0, 100 mM NaCl mixed 1:1 with 100 nM (final) FAM ligand, 30 min on ice; recombinant protein; residues 1-336; protein details: C-terminal His6; label: 5'-FAM; single-stranded DNA.

The mark [5] stands for this setting: label: 5'-FAM, single-stranded DNA.

“TTTTTTTTTTTTTTTTTTTTTTTTTTTTTTTTTTTTTTTTTTTTTTTTTTTTTTTTTTTT [60 dT]”: the binding result in series [1] (setting [5]) and in series [2] (setting [5]) was “binds more weakly” throughout. On to “GUAGUCGUGGCCGAGUGGUUAAGGCGAUGGACUUGAAAUCCAUUGUGGUUUCCCCGCGCAGGUUCGAAUCCUGCCGACUACGCCA [tRNA(Ser)]”, for which the binding result in series [3], in series [1] (label: 5'-FAM) and in series [2] (label: 5'-FAM) was “binds more weakly” each time.

On to TTTTT [5 dT], for which, in series [4], the binding result was “binds more weakly”.

TTTTTTTTTT [10 dT]: the binding result in series [4] was “binds more weakly”. With TTTTTTTTTTTTTTTTTTTT [20 dT], the binding result in series [4] is given as “binds more weakly”. As for “TTTTTTTTTTTTTTTTTTTTTTTTTTTTTTTTTTTTTTTTTTTTTTTTTGCTTTTTTTTT (double strand) [60 bp DNA (60bp_A/T_GC)]”, the binding result in series [1] (label: 5'-FAM (fwd)) and in series [2] (label: 5'-FAM (fwd)) was “binds more weakly” each time.
